The list shows a part of the results. Shown are side measurements of this screen, not its main read-out; they come without a call. Most of these compounds were active or inconclusive in the main read-out, so they are no random draw. Words in brackets tell the shape of the fitted curve; partial curves, single points and poor fits give uncertain potencies.
experiment: IkB Signaling; conditions: ABC-DLBCL IkBa-CBG/CBR dual luciferase ratio (green luciferase fused to IkBa over red control in OCI-Ly3 lymphoma cells), 4 h; measured here: control luc red channel unless noted
Outline: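 Luminescence ratio of IκBα-fused green versus native red beetle luciferase in OCI-Ly3 cells, 4 h post-doxycycline with compound; red signal alone, scaled from basal (0%) to zero light (-100%), flagged nonspecific or cytotoxic effects.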

Row | Structure (SMILES) | AC50
1 | Cc1cccc(-c2nc(-c3ccc4c(c3)[nH]c(=O)n4C)no2)c1 | 2 µM [rising, full curve]
2 | CCCN(CCC)CCCNC(=O)c1cc2c(-c3ccc(Cl)cc3)nn(C)c2s1 | 20 µM [falling, single point]
3 | CCc1cc(=O)oc2cc(C)c3c(-c4ccc(F)cc4)coc3c12 | 6.31 µM [rising, partial curve, poor fit]
4 | Cc1cccc(NC(=O)CSc2nc3c(oc4ccccc43)c(=O)n2-c2ccccc2)c1C | 12.6 µM [falling, partial curve]
5 | COc1ccccc1OCC(O)Cn1c(=N)n(Cc2ccccc2)c2ccccc21 (stereo not drawn) | 25.1 µM [falling, partial curve]
6 | Cc1ccc(S(=O)(=O)N2CCC(C(=O)Nc3cc(C)ccc3C)CC2)cc1 | 39.8 µM [falling, single point]
7 | O=C(CC(c1cccs1)N1Cc2ccccc2C1=O)Nc1ccccc1F (stereo not drawn) | 25.1 µM [falling, single point]
8 | COc1ccc(-c2nnc(SCC#N)o2)cc1 | 25.1 µM [rising, partial curve]
9 | Cc1ccc(CSC2=Nc3ccccc3C3=NC(CCC(=O)NCCc4ccccc4)C(=O)N23)cc1 (stereo not drawn) | 39.8 µM [falling, single point]
10 | COc1ccc(-c2nc(S(=O)(=O)c3ccc(Cl)cc3)c(N3CCCCCC3)o2)cc1 | 10 µM [falling, partial curve]
11 | Cc1ccc(C(=O)NCCSc2c(C)[nH]c3ccccc23)cc1C | 15.8 µM [falling, partial curve]
12 | Nc1nc2nc(-c3ccc(Cl)cc3)cc(C(F)(F)F)n2n1 | 5.01 µM [rising, partial curve]
13 | CC(=O)N1c2ccccc2C(=O)C1N1CCN(c2cccc(C)c2C)CC1 (stereo not drawn) | 25.1 µM [falling, partial curve]
14 | Cc1ccc(NC(=O)CSc2nc3c(c(=O)[nH]2)CN(Cc2ccccc2)CC3)cc1Cl | 25.1 µM [falling, partial curve]
15 | COC(=O)c1c(NC(=O)C2c3ccccc3Oc3ccccc32)sc2c1CCC(C)C2 (stereo not drawn) | 12.6 µM [falling, partial curve]
16 | CC(CNC(=O)c1sc2ncccc2c1-n1cccc1)c1ccccc1 (stereo not drawn) | 31.6 µM [falling, single point]
17 | CC1(C)CC(=O)c2cc(C(=O)Nc3ccc(Cl)cc3)c(=O)[nH]c2C1 | 31.6 µM [rising, single point]
18 | CN1CC(=O)N(CC(=O)Nc2ccc(F)cc2)c2ccccc2C1=O | 12.6 µM [falling, partial curve]
19 | COc1ccc(C)cc1NC(=O)CSc1nc(=O)n(Cc2cccnc2)c2c1CCC2 | 1.26 µM [falling, full curve]
20 | O=C(C1CCCN(S(=O)(=O)c2cccc3nonc23)C1)N1CCN(c2ccccc2F)CC1 (stereo not drawn) | 12.6 µM [falling, partial curve]
21 | O=C(CCn1c(=O)c2cccn2c2ccc(F)cc21)NCCc1ccc(Cl)cc1 | 20 µM [falling, single point]

Row | Structure (SMILES) | AC50
22 | Clc1ccc(-c2ccc(CNCCSc3nnnn3-c3ccccc3)o2)cc1 | 20 µM [falling, partial curve]
23 | CCN1CCN(c2oc(-c3ccc(COc4ccc(OC)cc4)o3)nc2C#N)CC1 | 0.398 µM [falling, partial curve, poor fit]
24 | COc1cc(OC)cc(C(=O)NCCn2ccc3ccccc32)c1 | 20 µM [falling, partial curve]
25 | CCN(CC)S(=O)(=O)c1nnc(NC(=O)COc2ccccc2)s1 | 3.16 µM [rising, partial curve]
26 | COc1ccc(C2(CNC(=O)C(=O)Nc3ccc(C)c(Cl)c3)CCCC2)cc1OC | 1.58 µM [rising, partial curve]
27 | COc1ccc(OC)c(C(=O)CN2C(=O)N(c3cc(C)cc(C)c3)S(=O)(=O)c3ccccc32)c1 | 5.01 µM [rising, single point]
28 | O=C1c2ccccc2C(=O)N1c1nc(-c2cccs2)cs1 | 3.16 µM [falling, partial curve]
29 | Cc1ccc(Cl)cc1-n1c(=O)c2sc3ccccc3c2n(CC(=O)NC2CCCC2)c1=O | 39.8 µM [falling, single point]
30 | CC(C)c1ccc(S(=O)(=O)N2CCN(CC(=O)Nc3ccc4c(c3)OCO4)CC2)cc1 | 15.8 µM [falling, partial curve]
31 | COc1ccc(CC(=O)Nc2c(C(=O)N3CCN(c4ccccc4F)CC3)oc3ccccc23)cc1OC | 15.8 µM [falling, partial curve]
32 | O=C1C2=C(Nc3ccccc3SC2c2ccc(C(F)(F)F)cc2)c2ccccc21 (stereo not drawn) | 7.94 µM [falling, partial curve]
33 | Cc1nc(N2CCN(C(=O)c3ccco3)CC2)c2c3c(sc2n1)CCC3 | 20 µM [falling, partial curve]
34 | COc1ccc(NC(=O)c2c(NC(=O)c3cccc(C)c3)sc3c2CCC3)cc1 | 12.6 µM [falling, partial curve, poor fit]
35 | COc1cccc(CNC(=O)c2ccc3oc(=O)n(Cc4ccccc4)c3c2)c1 | 12.6 µM [falling, partial curve]
36 | COCCNC(=O)c1ccc2c(c1)NC(=O)C(CS(=O)(=O)Cc1ccc(F)cc1Cl)N2 (stereo not drawn) | 39.8 µM [falling, partial curve]
37 | O=C(Nc1nnc(-c2ccccc2)o1)NC1CCCCC1 | 6.31 µM [rising, single point] [measured here: IkB-luc green channel]
38 | Cc1cc(O)c(C(c2ccc(F)cc2)N2CCN(c3ccccc3)CC2)c(=O)n1Cc1ccco1 (stereo not drawn) | 39.8 µM [falling, single point]
39 | O=C(CSc1nc2c(c(=O)[nH]1)CCC2)Nc1cccc(O)c1 | 15.8 µM [falling, partial curve, poor fit]
40 | COc1ccc(OC)c(NC(=O)Nc2cccc(OCc3cc(=O)n4cc(C)ccc4n3)c2)c1 | 0.398 µM [falling, full curve]
41 | CCOc1ccc(-n2ccnc2SCC(=O)NCc2ccc3c(c2)OCO3)cc1 | 25.1 µM [falling, partial curve]
42 | Cc1ccc(N2CCN(c3ncnc4onc(-c5ccc(F)cc5)c34)CC2)c(C)c1 | 7.94 µM [falling, single point]

From compound 12 as far as 15, copied from above:
Row | Structure (SMILES) | AC50
12 | Nc1nc2nc(-c3ccc(Cl)cc3)cc(C(F)(F)F)n2n1 | 5.01 µM [rising, partial curve]
13 | CC(=O)N1c2ccccc2C(=O)C1N1CCN(c2cccc(C)c2C)CC1 (stereo not drawn) | 25.1 µM [falling, partial curve]
14 | Cc1ccc(NC(=O)CSc2nc3c(c(=O)[nH]2)CN(Cc2ccccc2)CC3)cc1Cl | 25.1 µM [falling, partial curve]
15 | COC(=O)c1c(NC(=O)C2c3ccccc3Oc3ccccc32)sc2c1CCC(C)C2 (stereo not drawn) | 12.6 µM [falling, partial curve]

(cont.)

Row | Structure (SMILES) | AC50
43 | COc1ccc(-n2nnnc2C2CCN(S(=O)(=O)c3cc(Cl)ccc3OC)CC2)cc1 | 3.98 µM [falling, partial curve]
44 | CCOC(=O)NCc1cc(-c2nn(C)c(=O)c3ccccc23)ccc1C | 20 µM [falling, partial curve]
45 | Cc1ccc(S(=O)(=O)NCCc2nnc3ccc(SCc4cccc(F)c4)nn23)cc1 | 39.8 µM [falling, single point]
46 | CCN(CC)c1ccc(NC(=O)CN2CCN(S(=O)(=O)c3ccc(C(C)C)cc3)CC2)cc1 | 25.1 µM [falling, partial curve]
47 | COc1cc(NC(=O)Cn2c(=O)n(Cc3ccccc3)c(=O)c3oc4ccccc4c32)cc(OC)c1 | 6.31 µM [falling, partial curve]
48 | CCOC(=O)C1CCCN(C(=O)c2sc3nc(-c4ccc(OC)cc4)cn3c2C)C1 (stereo not drawn) | 3.98 µM [falling, partial curve]
49 | Cc1cc(-c2ccc(S(=O)(=O)Nc3ccccc3C)cc2)on1 | 7.94 µM [falling, partial curve]
50 | CC(C)Cn1c(SC(C)C(=O)Nc2ccc3c(c2)OCCO3)nc2ccccc2c1=O (stereo not drawn) | 10 µM [falling, partial curve]
51 | COc1ccc(-c2noc(CC(=O)N(C)c3ccccc3F)n2)cc1 | 39.8 µM [falling, single point]
52 | Cc1nc(N2CCOCC2)c2c(C(=O)N3CCN(c4cc(Cl)ccc4C)CC3)c(C)oc2n1 | 20 µM [falling, partial curve]
53 | COc1ccc(-n2cc(C(=O)NCCc3ccc(C)cc3)c3ccccc3c2=O)cc1 | 10 µM [falling, partial curve]
54 | CC1CCCCN1C(=O)CSc1nc2ccccc2nc1Cc1ccccc1 (stereo not drawn) | 31.6 µM [falling, single point]
55 | CCOc1ccc(N2C(=O)c3[nH]nc(-c4ccccc4)c3C2c2ccc(O)c(OC)c2)cc1 (stereo not drawn) | 39.8 µM [falling, partial curve, poor fit]
56 | COC(=O)Nc1c(-c2ccccc2)nc2ccc(C)cn12 | 25.1 µM [falling, partial curve]
57 | COc1ccc(OC)c(NC(=O)Cn2nc3c(cc2=O)CCCC3)c1 | 0.0631 µM [rising, full curve]
58 | COc1ccc(CCNS(=O)(=O)c2ccc3c(c2)c(=O)n(C)c(=O)n3C)cc1OC | 39.8 µM [falling, single point]
59 | Cc1ccc(NC(=O)c2nc(S(C)(=O)=O)ncc2N(Cc2cccc(F)c2)Cc2ccco2)cc1C | 2 µM [falling, full curve]
60 | CCOc1ccccc1N1CCN(CC(O)COc2ccc3c(C)cc(=O)oc3c2)CC1 (stereo not drawn) | 15.8 µM [falling, partial curve]
61 | O=C(CSc1ccccc1)Nc1ccc(S(=O)(=O)NCC2CCCO2)cc1 (stereo not drawn) | 12.6 µM [falling, partial curve]
62 | COc1ccc(N2CCN(C(=O)C(C)(C)Oc3ccc(Cl)cc3)CC2)cc1 | 15.8 µM [falling, partial curve]
63 | Cc1ccc(CNC(=O)c2oc3ccc(S(=O)(=O)N4CCCC(C)C4)cc3c2C)cc1 (stereo not drawn) | 3.16 µM [falling, full curve]

Source: PubChem BioAssay AID445 (National Center for Advancing Translational Sciences (NCATS), 2006)
